Measurements taken from patent US20100261876A1 (priority 2007, published 2010).
Plain letter strings leave the end groups untold.

Assays:
[1] = general procedure: hybrid (solid and solution phase) peptide synthesis; 2-CTC; TBTU / 6-Cl HOBt / DIEA; settings: whole synthesis; for crude yield: scale of the general procedure 2-CTC 2 kg, 3.1 mol active Cl, 2-CTC 1.5 kg, 2.3 mol active
[2] = general procedure: hybrid (solid and solution phase) peptide synthesis; 2-CTC resin (also Sieber amide, rink-loaded CTC, Glu37 side-chain-loaded CTC); TBTU / 6-Cl HOBt / DIEA

Row | Sequence | crude mass [1] | crude yield [1] | other results
1 | QQEKNEAALRE | 2618 g | 72.6% | –
2 | QQEKNEAALREL | – | – | step yield ([2]; coupling step): 98.4%
3 | TTWEAWDRAIAEYAARIEALLRALQEQQEKNEAALREL | – | – | step yield ([2]; late stage modification step): 100%; step yield ([2]; purification step, run 1): 94%; step yield ([2]; purification step, run 2): 96%
4 | TTWEAWDRAIAEYAARIEALLRALQE | 2841 g | 61.6% | –
